According to article PMC12179556:
No constants are given. Whether binding was seen depends on the method and setting. For some of these results: Binding seen in cells or lysates may run through a third protein. Some entries that bind do so weakly or less than the wild type. For some of these results: Tags and fused reporters may be left off the sequences shown. One block for each molecule: values may come before it.

Sequences of proteins named here, by UniProt entry; tags and fusion partners are left off.
UniProt Q99JI1: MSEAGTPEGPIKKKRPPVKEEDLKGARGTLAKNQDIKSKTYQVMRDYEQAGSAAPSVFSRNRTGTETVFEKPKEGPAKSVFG

How the values were obtained:
[1] = target: T1, SMPX-3×FLAG (mouse small muscle protein X-linked) (mouse) (UniProt Q9DC77); experiment: co-IP; C2C12 cells 48 h after transfection with the 3×FLAG construct; lysate rotated with anti-FLAG magnetic beads overnight at 4°C, washed three to five times with lysis buffer; Western blot
T1 sequence: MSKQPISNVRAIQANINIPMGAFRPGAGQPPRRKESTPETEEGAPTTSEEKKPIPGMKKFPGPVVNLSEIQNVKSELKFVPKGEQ

[2] = target: T2, SMPX-His (UniProt Q9DC77); experiment: pull-down; His pull-down: enrichment of MUSTN1 protein on binding beads holding SMPX-His, as for the GST pull-down; a heat shock protein as negative control; immunoblot with anti-GST; both purified
T2 sequence: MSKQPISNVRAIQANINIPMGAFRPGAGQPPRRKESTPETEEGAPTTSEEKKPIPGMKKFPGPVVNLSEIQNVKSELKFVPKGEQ

[3] = target: MUSTN1-3×FLAG (mouse musculoskeletal embryonic nuclear protein 1) (mouse) (UniProt Q99JI1); experiment: co-IP; C2C12 cells 48 h after transfection with the 3×FLAG construct; lysate rotated with anti-FLAG magnetic beads overnight at 4°C, washed three to five times with lysis buffer; Western blot
[4] = target: GST-MUSTN1 (not stated (pig or mouse cDNA cloned)) (UniProt Q99JI1); experiment: pull-down; GST pull-down: 20 μL beads bound to GST-MUSTN1 incubated with SMPX-His in binding buffer (50 mM Tris-HCl, 100 mM NaCl, 10% glycerol, 0.1% Tween-20, 1 mM DTT) at 4°C for 4 h; five washes; immunoblot with anti-His; both purified

binding [1]: binds
Molecule: Musculoskeletal embryonic nuclear protein 1 (MUSTN1), endogenous in C2C12 (from UniProt Q99JI1 1-82)

binding [2]: binds
Molecule: GST-MUSTN1 (from UniProt Q99JI1 1-82)

binding [3]: binds
B1: Small muscle protein X-linked (SMPX), endogenous in C2C12 (protein, UniProt Q9DC77 1-85)
chain: MSKQPISNVRAIQANINIPMGAFRPGAGQPPRRKESTPETEEGAPTTSEEKKPIPGMKKFPGPVVNLSEIQNVKSELKFVPKGEQ

binding [4]: binds
B2: SMPX-His (protein, UniProt Q9DC77 1-85)
chain: MSKQPISNVRAIQANINIPMGAFRPGAGQPPRRKESTPETEEGAPTTSEEKKPIPGMKKFPGPVVNLSEIQNVKSELKFVPKGEQ
